This is one part of the list. The main result of the screen is listed elsewhere. These columns were measured beside it and carry no call. Compounds called inactive in the main read-out are mostly missing here. The note in brackets gives the kind of curve behind each potency; many fits are weak.
Test: qHTS Assay for Lipid Storage Modulators in Drosophila S3 Cells;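 for cell number change: cells counted by Cell Tracker Red CMTPX staining in the red channel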
Details: BODIPY lipid droplet fluorescence, 18-24 h; for cell number change: measured here: cell count max response, cells fed with added oleic acid
Method in brief: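 Drosophila S3 cells got compounds at several concentrations plus oleic acid (400 uM solution). Laser-scanning cytometry with 488 nm excitation read lipid droplets at 500-530 nm and cells at 575-640 nm. Percent activity was relative to 20 uM Triacsin C.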

[1] = measured here: lipid fluorescence (Fed channel) AC50, cells fed with added oleic acid
[2] = measured here: cell number channel AC50, cells fed with added oleic acid

Compound	cell number change [%]	AC50 [1]	AC50 [2]
O=[N+]([O-])c1ccc(-c2csc(N/N=C/c3cccnc3)n2)cc1	-8.49	13 µM [falling, partial curve]	–
CC(C)OCCCN(CC(O)c1ccccc1)CC(O)c1ccccc1 (stereo unspecified)	-16.3	0.116 µM [falling, full curve]	0.103 µM [falling, full curve, poor fit]
C=CCn1c(COc2ccc(Cl)cc2)nnc1SCc1ccc(C#N)cc1	10.5	0.92 µM [rising, full curve]	2.06 µM [rising, partial curve]
Nc1c([N+](=O)[O-])cc(-c2cnc[nH]2)cc1[N+](=O)[O-]	7.22	–	2.59 µM [rising, single point]
Oc1ccc(Cl)cc1/C=C/c1ccc2cccc(O)c2n1	-26.8	32.6 µM [falling, partial curve, poor fit]	–
CCCCC(=Nc1ccc(N)cc1)C1=C(O)C(C(=O)OC)C(C)(C)CC1=O (stereo unspecified)	–	2.06 µM [rising, partial curve, poor fit]	–
COc1ccccc1N1CCN(Cc2nc3ccsc3c(=O)[nH]2)CC1	-2.37	0.103 µM [rising, full curve, poor fit]	–
CCCS(=O)(=O)c1c(S(=O)(=O)CCC)c2ccccn2c1C(=O)OC	-11.3	–	–
CCOC(=O)C(Cc1ccccc1)NC(=O)CCc1nnc2ccc(N3CCOCC3)nn12 (stereo unspecified)	11.8	–	–
O=C(COC(=O)CC(c1ccccc1)c1ccccc1)NCc1ccccc1	8.11	3.66 µM [rising, full curve, poor fit]	3.66 µM [rising, single point]
COc1ccc(OC)c(NC(=O)CN2CCc3ccccc3C2)c1	9.27	–	–
CCN(CC)CCNC(=O)Cn1c(C)cc2ccccc2c1=O	-29.9	10.3 µM [falling, partial curve, poor fit]	–
COc1ccc2c(c1)cc(C)c1nnc(SCC(=O)N3CCN(C(=O)c4ccco4)CC3)n12	-0.776	9.2 µM [rising, partial curve]	–
CC(C)Cc1nnc(NC(=O)C2CCCC2)s1	18.8	0.92 µM [rising, partial curve]	3.26 µM [rising, partial curve, poor fit]
Cc1ccc(Cl)cc1NC(=O)CC(O)(C(F)(F)F)C(F)(F)F	-208	0.731 µM [rising, partial curve]	–
COc1ccc(Cl)cc1N1C(=O)/C(=C\c2sccc2C)N=C1SCC(=O)NC1CC1	3.38	1.3 µM [rising, full curve]	0.92 µM [rising, full curve]
O=C(Nc1ccc(Cc2nc3ccccc3s2)cc1)c1ccncc1	2.63	35.5 µM [rising, single point]	–
CCOC(=O)/C(C#N)=C/c1cn(CCOc2ccccc2)c2ccccc12	-4.32	0.82 µM [rising, partial curve, poor fit]	–
CCC(=O)c1cc(F)c(N2CCN(S(=O)(=O)c3ccc(C)cc3)CC2)cc1C	-21.4	2.31 µM [rising, partial curve, poor fit]	–
CC1CCc2c(sc(NC(=O)CSc3ncnc4c3cnn4-c3ccccc3Cl)c2C#N)C1 (stereo unspecified)	0.621	0.291 µM [falling, full curve, poor fit]	–

Single entries from the entries so far.
O=[N+]([O-])c1ccc(-c2csc(N/N=C/c3cccnc3)n2)cc1 – AC50 [1]: 13 µM [falling, partial curve]
CCOC(=O)/C(C#N)=C/c1cn(CCOc2ccccc2)c2ccccc12 – cell number change [%]: -4.32

Further entries.

Compound	cell number change [%]	AC50 [1]	AC50 [2]
CC(=O)c1cccc(NC(=S)Nc2ccn(Cc3cccc4ccccc34)n2)c1	9.72	–	–
O=C(Nc1ccc2nc(-c3cccs3)[nH]c2c1)c1cccs1	-20.7	4.11 µM [rising, full curve]	–
O=c1[nH]c2c(s1)C(c1ccc(O)cc1)C1C3CCC(C3)C1S2 (stereo unspecified)	1.65	18.4 µM [falling, single point]	–
O=C(CC1C(=O)NCCN1Cc1ccc(-c2ccccc2)cc1)NCCCn1ccnc1 (stereo unspecified)	2.19	0.82 µM [falling, full curve, poor fit]	–
Cc1ccc(N(CC(=O)NC(C)c2ccccc2)S(=O)(=O)c2cccs2)cc1 (stereo unspecified)	-51	–	29.1 µM [falling, single point]
O=C(NCc1ccccc1)c1nc[nH]c1C(=O)N1CCN(c2ccccc2)CC1	-5.9	0.0092 µM [falling, full curve, poor fit]	–
Cc1sc2nc3n(c(=O)c2c1C)CCCS3	-13.1	–	–
O=C(c1cc2nc(-c3ccccc3)cc(C(F)(F)F)n2n1)N1CCOCC1	5.66	2.91 µM [rising, partial curve, poor fit]	–
O=c1nc2n(c3c1oc1ccccc13)Cc1ccccc1-2	–	–	0.13 µM [rising, full curve, poor fit]
COc1ccc(S(=O)(=O)N(CCCN2CCCC2=O)Cc2cc3c(C)ccc(C)c3[nH]c2=O)cc1	–	0.731 µM [rising, partial curve]	0.366 µM [rising, partial curve, poor fit]
COc1ccc(C(=O)N/C(=C/c2ccccc2F)C(=O)NCCN2CCOCC2)cc1OC	-26.3	0.58 µM [falling, single point]	–
O=C(NN=C1CCCC1)c1ccccc1O	5.56	29.1 µM [rising, single point]	–
N#Cc1c(SCC(=O)Nc2ccc(C(F)(F)F)cc2)sc2c(O)cc(=O)[nH]c12	9.24	29.1 µM [falling, single point]	–
O=c1cc(CSc2nnc(COc3ccccc3Cl)o2)nc2sccn12	8.14	–	–
CCOC(=O)c1cccc(NC(=O)CCCn2c(=O)c3cccn3c3cccnc32)c1	-11.1	8.2 µM [falling, partial curve]	–
CCSc1ccc(C(=O)NCC(=O)O)cc1	-0.794	–	–
CCN(CC)c1nc(N)n(CCSC(=S)N(C)C)c(=O)n1	-12.9	3.66 µM [falling, single point]	–
CCOC(=O)c1sc(NC(=O)c2ccc(S(=O)(=O)N3CCOCC3)cc2)cc1C	-10.7	–	–
COc1ccc(CNC(=O)Cn2nc(-c3ccc4c(c3)OCCO4)ccc2=O)cc1	-1.67	–	–
Cc1cccc(N(CC(N)=O)S(C)(=O)=O)c1C	-150	29.1 µM [falling, single point]	29.1 µM [falling, single point]

Gathered by group, the compounds so far with an aryl methoxy group.
Compound	cell number change [%]	AC50 [1]	AC50 [2]
COc1ccccc1N1CCN(Cc2nc3ccsc3c(=O)[nH]2)CC1	-2.37	0.103 µM [rising, full curve, poor fit]	–
COc1ccc(OC)c(NC(=O)CN2CCc3ccccc3C2)c1	9.27	–	–
COc1ccc2c(c1)cc(C)c1nnc(SCC(=O)N3CCN(C(=O)c4ccco4)CC3)n12	-0.776	9.2 µM [rising, partial curve]	–
COc1ccc(Cl)cc1N1C(=O)/C(=C\c2sccc2C)N=C1SCC(=O)NC1CC1	3.38	1.3 µM [rising, full curve]	0.92 µM [rising, full curve]
COc1ccc(S(=O)(=O)N(CCCN2CCCC2=O)Cc2cc3c(C)ccc(C)c3[nH]c2=O)cc1	–	0.731 µM [rising, partial curve]	0.366 µM [rising, partial curve, poor fit]
COc1ccc(C(=O)N/C(=C/c2ccccc2F)C(=O)NCCN2CCOCC2)cc1OC	-26.3	0.58 µM [falling, single point]	–
COc1ccc(CNC(=O)Cn2nc(-c3ccc4c(c3)OCCO4)ccc2=O)cc1	-1.67	–	–

Additional compounds

Compound	cell number change [%]	AC50 [1]	AC50 [2]
Cc1ccc(C(=O)Nn2cnc3ccccc3c2=O)cc1C	-15.3	3.26 µM [rising, single point]	–
CCc1ccc(OCCCC(=O)Nc2ccc(S(=O)(=O)Nc3cc(C)nc(C)n3)cc2)cc1	9.66	–	–
COc1ccc(Cl)c(Cn2c(NCc3ccco3)nc3c2c(=O)n(C)c(=O)n3C)c1	-62.2	1.64 µM [falling, full curve]	5.8 µM [falling, full curve]
COc1ccc(C)cc1NC(=S)NNC(=O)c1c(Br)cnn1C	-39.7	–	–
CCc1nnc(SCc2ccc(CSc3nnc(CC)n3N)cc2)n1N	5.12	2.31 µM [falling, partial curve, poor fit]	–
O=C(Cc1n[nH]c(=O)c2ccccc12)Nc1cc(Cl)ccc1-n1cncn1	23.8	0.366 µM [rising, full curve]	–
CN(C)S(=O)(=O)n1cc(/C=C(\NC(=O)c2ccccc2)C(=O)NCCCn2ccnc2)c2ccccc21	9.63	4.11 µM [rising, full curve]	–
O=C(CN(CC1CCCO1)C(=O)CCC(=O)Nc1nccs1)NCC1CCCO1 (stereo unspecified)	36.5	29.1 µM [rising, single point]	29.1 µM [rising, single point]
CCCN1Cc2cccc(C(=O)Nc3ccc(-c4nc5ccccc5[nH]4)cc3)c2C1=O	42.6	0.103 µM [falling, full curve, poor fit]	7.31 µM [rising, partial curve]
Cc1cc(Br)ccc1SCC(=O)OCC(=O)N1CCN(C(=O)c2ccco2)CC1	0.97	0.411 µM [rising, full curve]	–
COc1ccc(/C=N/NC(=O)c2cccc(NC(=O)c3ccccc3)c2)c(C(=O)O)c1OC	31.6	1.84 µM [rising, partial curve, poor fit]	3.66 µM [rising, partial curve]
O=[N+]([O-])c1cc(-n2cnnn2)ccc1N1CCC(Cc2ccccc2)CC1	-52.3	18.4 µM [falling, single point]	18.4 µM [falling, single point]
O=C(O)CNC(=O)CC1S/C(=N/N=C2/NC(=O)CS2)NC1=O (stereo unspecified)	-66	4.61 µM [falling, partial curve]	5.17 µM [falling, full curve, poor fit]
O=S(=O)(NCc1csc(-c2cccnc2)n1)c1ccc(Cl)s1	58.7	10.3 µM [rising, partial curve]	29.1 µM [rising, single point]
Cc1nc2ccc(S(=O)(=O)NCC(=O)Nc3ccc(F)cc3)cc2s1	–	6.51 µM [rising, single point]	–
Oc1cc(NCCc2cccnc2)cc2cccnc12	23.5	11.6 µM [rising, partial curve, poor fit]	–
CCCN(CCC)CCCNc1ccc2nnc(-c3ccc(F)cc3)n2n1	45.2	–	23.1 µM [rising, single point]
O=C(Cc1n[nH]c(=O)[nH]c1=O)N/N=C/c1c(O)ccc2ccccc12	-37.9	0.206 µM [falling, full curve, poor fit]	0.231 µM [falling, full curve, poor fit]

Source: PubChem BioAssay AID2685 (National Center for Advancing Translational Sciences (NCATS), 2010)
